Some of the results follow. Residues, ends and D or L forms follow the SMILES beside them. *: point of attachment. Cbz = O=C(OCc1ccccc1)*

By UniProt entry, the sequences of proteins in these tests, tags left out. Where a name states a change or a piece, a line headed by the entry shows the natural chain unless it says otherwise.
UniProt A6NFI3: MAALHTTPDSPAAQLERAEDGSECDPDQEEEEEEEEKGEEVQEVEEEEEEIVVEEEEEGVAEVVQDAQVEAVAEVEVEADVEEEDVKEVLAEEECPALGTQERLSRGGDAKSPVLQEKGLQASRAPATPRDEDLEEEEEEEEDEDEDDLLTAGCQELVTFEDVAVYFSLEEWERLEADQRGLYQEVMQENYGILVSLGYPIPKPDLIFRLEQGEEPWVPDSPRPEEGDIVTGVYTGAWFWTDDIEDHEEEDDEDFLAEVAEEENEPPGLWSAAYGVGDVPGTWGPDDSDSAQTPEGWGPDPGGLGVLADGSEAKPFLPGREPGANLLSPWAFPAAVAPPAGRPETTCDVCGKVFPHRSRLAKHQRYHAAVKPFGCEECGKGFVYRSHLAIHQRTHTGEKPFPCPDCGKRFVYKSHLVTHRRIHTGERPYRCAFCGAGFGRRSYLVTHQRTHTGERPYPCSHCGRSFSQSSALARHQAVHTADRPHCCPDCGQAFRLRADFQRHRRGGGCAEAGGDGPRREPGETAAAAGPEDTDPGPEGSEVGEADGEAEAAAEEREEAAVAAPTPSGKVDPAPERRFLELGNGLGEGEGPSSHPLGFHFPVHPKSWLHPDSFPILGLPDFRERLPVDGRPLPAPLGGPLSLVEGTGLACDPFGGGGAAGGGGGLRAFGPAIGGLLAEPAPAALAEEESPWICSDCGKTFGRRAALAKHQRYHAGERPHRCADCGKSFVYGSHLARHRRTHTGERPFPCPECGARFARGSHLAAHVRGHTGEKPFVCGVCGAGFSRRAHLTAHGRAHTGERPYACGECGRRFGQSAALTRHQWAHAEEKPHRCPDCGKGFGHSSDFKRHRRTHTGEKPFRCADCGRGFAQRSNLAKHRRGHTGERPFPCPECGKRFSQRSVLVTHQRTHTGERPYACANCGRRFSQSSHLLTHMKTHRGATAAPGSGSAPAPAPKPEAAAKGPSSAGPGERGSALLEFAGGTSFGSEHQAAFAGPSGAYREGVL

This assay concerns the target ZNF316 (UniProt A6NFI3). As to the kind of experiment: log2 fold change, soluble protein after heating vs DMSO (PISA); higher = thermal stabilisation; K562 cells, 10 uM, 30 min; active = over 0.2 and 3.5 SD of the protein, either way, in both replicates (recomputed). In short, it runs like this:
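K562 cells at 2×10^6 cells/mL were given 10 μM compound for 30 min. Aliquots then went through 3 min of heating across 48°C-58°C, were pooled, and were extracted in PBS with 0.5% NP-40 at 4°C, and the supernatant after 21,000xg for 90 min was quantified by TMTpro 16plex LC-MS/MS with channel sums equalised. Thermal stability relative to control samples, from duplicates, is given as log2 fold change.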
As to `CC(=O)c1cnc2ccc(-c3cc(Cl)c(O)c(Cl)c3)nc2c1N[C@H]1CC[C@H](CN(C)C)CC1`, the log2 fold change was inactive: -0.181.
As for `Cc1ccc(NC(=O)c2cccc(N(C)C)c2)cc1NC(=O)c1ccc(O)cc1`, the figure is inactive: -0.062.
As for `Cc1ccc(NC(=O)c2ccc(CN3CC[C@H](N(C)C)C3)c(C(F)(F)F)c2)cc1Nc1nccc(-c2cncnc2)n1` [bafetinib], the figure is inactive: 0.251; as for `CC(C)C[C@@H](C=O)NC(=O)[C@H](CC(C)C)NC(=O)[C@H](CC(C)C)NC(=O)OCc1ccccc1` (Cbz-Leu-Leu-Leu-aldehyde), inactive: -0.071.
As for `Oc1cc(-c2nc(-c3ccccc3)[nH]c2-c2ccncc2)ccc1Cl`, the figure is inactive: -0.195; as for `CC[C@@H]1C(=O)N(C)c2cnc(Nc3ccc(C(=O)NC4CCN(C)CC4)cc3OC)nc2N1C1CCCC1`, inactive: 0.076.
With `CC(C)(C)Cn1c(N)nc2ccc(-c3[nH]c(C(C)(C)C)nc3-c3ccc(F)cc3)nc21` [ralimetinib], the log2 fold change was inactive: 0.051.
Consider `O=C1c2ccccc2-c2n[nH]c3cccc1c23`, for which the log2 fold change was inactive: -0.588.
To `COc1cc(C(=O)O)ccc1NC(=O)[C@@H]1N[C@@H](CC(C)(C)C)[C@](C#N)(c2ccc(Cl)cc2F)[C@H]1c1cccc(Cl)c1F` [idasanutlin] belongs inactive: 0.181; to `CO[C@H]1C[C@@H]2CC[C@@H](C)[C@@](O)(O2)C(=O)C(=O)N2CCCC[C@H]2C(=O)O[C@H]([C@H](C)C[C@@H]2CC[C@H](n3cnnn3)[C@H](OC)C2)CC(=O)[C@H](C)/C=C(\C)[C@@H](O)[C@@H](OC)C(=O)[C@H](C)C[C@H](C)/C=C/C=C/C=C/1C` [zotarolimus], inactive: -0.138.

The values above are taken from the supplement of paper PMC10849652.
